{"sequences": {"note": "Protein sequences, listed by entry. Tags and fused reporters are not part of them. Lines headed by an entry give the natural chain unless they say otherwise; changes in a name come on top.", "UniProt Q9X2H9": "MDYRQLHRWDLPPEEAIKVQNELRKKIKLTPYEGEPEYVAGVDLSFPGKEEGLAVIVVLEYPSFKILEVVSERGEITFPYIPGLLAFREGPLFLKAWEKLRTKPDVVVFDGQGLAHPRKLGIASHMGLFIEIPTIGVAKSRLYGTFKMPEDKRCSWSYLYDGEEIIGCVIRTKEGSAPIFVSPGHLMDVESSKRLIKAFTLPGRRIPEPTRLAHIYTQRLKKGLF"}, "source": "patent US20030148283", "key": {"[1]": {"molecular_target": "T1, Tma endonuclease V (wild type) (Thermotoga maritima) (UniProt Q9X2H9)", "T1 sequence": "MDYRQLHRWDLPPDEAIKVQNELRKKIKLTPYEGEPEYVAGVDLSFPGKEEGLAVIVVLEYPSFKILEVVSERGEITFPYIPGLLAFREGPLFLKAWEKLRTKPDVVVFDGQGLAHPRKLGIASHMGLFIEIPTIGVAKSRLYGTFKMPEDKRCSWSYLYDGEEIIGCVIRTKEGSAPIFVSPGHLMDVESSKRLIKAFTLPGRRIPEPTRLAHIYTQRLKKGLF", "assay": "EMSA", "details": "deoxyinosine in top strand [26 (deoxyinosine, top strand, written as G; A opposite in bottom strand)], purified recombinant protein, label: 5'-FAM top, 5'-TET bottom"}, "[2]": {"molecular_target": "T2, Tma endonuclease V K139A (Thermotoga maritima) (UniProt Q9X2H9)", "T2 sequence": "T1 sequence with K139A", "assay": "EMSA", "details": "deoxyinosine in top strand [26 (deoxyinosine, top strand, written as G; A opposite in bottom strand)], purified recombinant protein, label: 5'-FAM top, 5'-TET bottom, letters built from the parent sequence and the stated change"}, "[3]": {"molecular_target": "T3, Tma endonuclease V E89A (Thermotoga maritima) (UniProt Q9X2H9)", "T3 sequence": "T1 sequence with E89A", "assay": "EMSA", "details": "deoxyinosine in top strand [26 (deoxyinosine, top strand, written as G; A opposite in bottom strand)], purified recombinant protein, label: 5'-FAM top, 5'-TET bottom, letters built from the parent sequence and the stated change"}, "[4]": {"molecular_target": "T4, Tma endonuclease V D110A (Thermotoga maritima) (UniProt Q9X2H9)", "T4 sequence": "T1 sequence with D110A", "assay": "EMSA", "details": "deoxyinosine in top strand [26 (deoxyinosine, top strand, written as G; A opposite in bottom strand)], purified recombinant protein, label: 5'-FAM top, 5'-TET bottom, letters built from the parent sequence and the stated change"}, "[5]": {"molecular_target": "T5, Tma endonuclease V Y80A (Thermotoga maritima) (UniProt Q9X2H9)", "T5 sequence": "T1 sequence with Y80A", "assay": "EMSA", "details": "deoxyinosine in top strand [26 (deoxyinosine, top strand, written as G; A opposite in bottom strand)], purified recombinant protein, label: 5'-FAM top, 5'-TET bottom, letters built from the parent sequence and the stated change"}, "[6]": {"molecular_target": "T6, Tma endonuclease V H125A (Thermotoga maritima) (UniProt Q9X2H9)", "T6 sequence": "T1 sequence with H125A", "assay": "EMSA", "details": "deoxyinosine in top strand [26 (deoxyinosine, top strand, written as G; A opposite in bottom strand)], purified recombinant protein, label: 5'-FAM top, 5'-TET bottom, letters built from the parent sequence and the stated change"}, "[7]": {"molecular_target": "T7, Tma endonuclease V D105A (Thermotoga maritima) (UniProt Q9X2H9)", "T7 sequence": "T1 sequence with D105A", "assay": "EMSA", "details": "deoxyinosine in top strand [26 (deoxyinosine, top strand, written as G; A opposite in bottom strand)], purified recombinant protein, label: 5'-FAM top, 5'-TET bottom, letters built from the parent sequence and the stated change"}, "[8]": {"molecular_target": "T8, Tma endonuclease V R88A (Thermotoga maritima) (UniProt Q9X2H9)", "T8 sequence": "T1 sequence with R88A", "assay": "EMSA", "details": "deoxyinosine in top strand [26 (deoxyinosine, top strand, written as G; A opposite in bottom strand)], purified recombinant protein, label: 5'-FAM top, 5'-TET bottom, letters built from the parent sequence and the stated change"}, "[9]": {"molecular_target": "T9, Tma endonuclease V D43A (Thermotoga maritima) (UniProt Q9X2H9)", "T9 sequence": "T1 sequence with D43A", "assay": "EMSA", "details": "deoxyinosine in top strand [26 (deoxyinosine, top strand, written as G; A opposite in bottom strand)], purified recombinant protein, label: 5'-FAM top, 5'-TET bottom, letters built from the parent sequence and the stated change"}, "[10]": {"molecular_target": "T10, Tma endonuclease V H116A (Thermotoga maritima) (UniProt Q9X2H9)", "T10 sequence": "T1 sequence with H116A", "assay": "EMSA", "details": "deoxyinosine in top strand [26 (deoxyinosine, top strand, written as G; A opposite in bottom strand)], purified recombinant protein, label: 5'-FAM top, 5'-TET bottom, letters built from the parent sequence and the stated change"}, "[11]": {"molecular_target": "T5, Tma endonuclease V Y80A (Thermotoga maritima)", "assay": "enzyme reaction in vitro", "details": "deoxyinosine in top strand [26 (deoxyinosine, top strand, written as G; A opposite in bottom strand)]; apparent first order rate, E:S 1:10, 5 mM MgCl2; purified recombinant protein; label: 5'-FAM top, 5'-TET bottom; letters built from the parent sequence and the stated change"}}, "note": "Changes are numbered by the printed parent chain. For part of these data: A negative result means that nothing was seen under these conditions. Protein sequences can lack the tags named with them. For part of these data: For at least one entry, the source does not settle the construct or the ends of the probe. For part of these data: A weaker result is weaker than the reference pair of the same experiment."}
{"sequence": "TACCCGAGCGTCTGCGGTGTTGCGTGAGTTGTCATAGTTTGATCCTCTAGTCTTGTTGCGGGTTCC (double strand) [I/A inosine duplex]", "values": [{"measurement": "binding result", "setting": "[1]; 2 mM EDTA, no metal, text: no stable complex, letters built from the parent sequence and the stated change", "result": "binds more weakly"}, {"measurement": "binding result", "setting": "[1]; 5 mM CaCl2, 65 C, ++ also in MgCl2, letters built from the parent sequence and the stated …", "result": "binds"}, {"measurement": "binding result", "setting": "[2]; 2 mM EDTA", "result": "no binding"}, {"measurement": "binding result", "setting": "[2]; 5 mM CaCl2, +++ in MgCl2", "result": "binds"}, {"measurement": "binding result", "setting": "[3]; 2 mM EDTA", "result": "binds"}, {"measurement": "binding result", "setting": "[3]; 5 mM CaCl2, - in MgCl2, cleavage weak", "result": "binds"}, {"measurement": "binding result", "setting": "[4]; 2 mM EDTA", "result": "binds"}, {"measurement": "binding result", "setting": "[4]; 5 mM CaCl2, ++ in MgCl2, no cleavage", "result": "binds"}, {"measurement": "binding result", "setting": "[5]; 2 mM EDTA", "result": "no binding"}, {"measurement": "binding result", "setting": "[5]; 5 mM CaCl2, - also in MgCl2, text: reduced affinity, still cleaves (++)", "result": "no binding"}, {"measurement": "binding result", "setting": "[6]; 2 mM EDTA", "result": "no binding"}, {"measurement": "binding result", "setting": "[6]; 5 mM CaCl2, +++ in MgCl2", "result": "binds"}, {"measurement": "binding result", "setting": "[7]; 2 mM EDTA", "result": "binds more weakly"}, {"measurement": "binding result", "setting": "[7]; 5 mM CaCl2, ++ in MgCl2, wt cleavage", "result": "binds"}, {"measurement": "binding result", "setting": "[8]; 2 mM EDTA", "result": "no binding"}, {"measurement": "binding result", "setting": "[8]; 5 mM CaCl2, ++ in MgCl2, cleavage ++", "result": "binds more weakly"}, {"measurement": "binding result", "setting": "[9]; 2 mM EDTA, no metal", "result": "binds"}, {"measurement": "binding result", "setting": "[9]; 5 mM CaCl2, ++ also in MgCl2, no cleavage", "result": "binds"}, {"measurement": "binding result", "setting": "[10]; 2 mM EDTA", "result": "no binding"}, {"measurement": "binding result", "setting": "[10]; 5 mM CaCl2, ++ in MgCl2, text: reduced affinity", "result": "binds more weakly"}, {"measurement": "activity on this sequence", "setting": "[11]", "result": 0.04, "unit": "min⁻¹"}]}
